Results published in patent US10183050B2, “Bean leaves or bean stems having high isoflavone derivatives content and method for preparing same” (INDUSTRY-ACADEMIC COOPERATION FOUNDATION GYEONGSANG …, priority 2013, dated 2019).

Legend:
soybean leaves [1] = details: soybean leaves as reported in the literature, no ethylene or ethephon treatment; cited from earlier work
soybean leaves [2] = test: UPLC quantitative analysis of isoflavone derivatives in soybean leaves treated with ethephon after harvest; parameters: species or system Glycine max; details: soybean leaves treated with 50 ppm ethephon after harvest
soybean stems = test: HPLC quantitative analysis of isoflavone derivatives in soybean stems treated with ethylene; parameters: species or system Glycine max; details: ethanol fraction of soybean stems treated with 100-1000 ppm of ethylene

In the case of `O=c1c(-c2ccc(O)cc2)coc2cc(O)cc(O)c12` [Genistein, genistein], the “content in soybean leaves” value (soybean leaves [1]) is listed as “undetected”.

In the case of `O=C(O)CC(=O)OCC1O[C@@H](Oc2ccc3c(=O)c(-c4ccc(O)cc4)coc3c2)C(O)C(O)[C@@H]1O` (single isomer, unassigned) [Malonyldaidzin (3), malonyldaidzin], the “content in soybean leaves” value (soybean leaves [1]) is given as “undetected”, the “Content, 1 day after treatment” value (soybean leaves [2]) is given as 2312.1 ± 33.4 µg/g and the “Content, 2 days after treatment” value (soybean leaves [2]) is given as 3337.9 ± 56.2 µg/g. For the same compound, the “Content, 3 days after treatment” value (soybean leaves [2]) was 3528.4 ± 94.1 µg/g and the “Content, After treatment” value (soybean stems) was 3982.0 ± 129.2 µg/g.

For `O=c1c(-c2ccc(O)cc2)coc2cc(O[C@@H]3OC(CO)[C@@H](O)C(O)C3O)ccc12` (single isomer, unassigned) [Daidzin (1), daidzin], the “content in soybean leaves” value (soybean leaves [1]) is listed as “undetected”, the “Content, 1 day after treatment” value (soybean leaves [2]) is listed as 1280.4 ± 22.9 µg/g and the “Content, 2 days after treatment” value (soybean leaves [2]) is listed as 1551.2 ± 31.4 µg/g. For the same compound, the “Content, 3 days after treatment” value (soybean leaves [2]) was 1991.5 ± 51.8 µg/g and the “Content, After treatment” value (soybean stems) was 1931.7 ± 71.2 µg/g.

In the case of `O=c1c(-c2ccc(O)cc2)coc2cc(O)ccc12` [Daidzein, daidzein], the “content in soybean leaves” value (soybean leaves [1]) is listed as “undetected”.

In the case of `O=C(O)CC(=O)OCC1O[C@@H](Oc2cc(O)c3c(=O)c(-c4ccc(O)cc4)coc3c2)C(O)C(O)[C@@H]1O` (single isomer, unassigned) [Malonylgenistin (4), malonylgenistin], the “content in soybean leaves” value (soybean leaves [1]) is listed as 310 µg/g, the “Content, 1 day after treatment” value (soybean leaves [2]) is listed as 2347.4 ± 37.2 µg/g and the “Content, 2 days after treatment” value (soybean leaves [2]) is listed as 3480.6 ± 72.4 µg/g. The “Content, 3 days after treatment” value (soybean leaves [2]) was 3909.2 ± 91.7 µg/g and the “Content, After treatment” value (soybean stems) was 4033.1 ± 156.5 µg/g.

For `O=c1c(-c2ccc(O)cc2)coc2cc(O[C@@H]3OC(CO)[C@@H](O)[C@H](O)C3O)cc(O)c12` (single isomer, unassigned) [Genistin (2), genistin], the “content in soybean leaves” value (soybean leaves [1]) is given as 90 µg/g, the “Content, 1 day after treatment” value (soybean leaves [2]) is given as 1316.7 ± 27.5 µg/g and the “Content, 2 days after treatment” value (soybean leaves [2]) is given as 1803.4 ± 48.2 µg/g. The “Content, 3 days after treatment” value (soybean leaves [2]) was 2098.7 ± 56.2 µg/g and the “Content, After treatment” value (soybean stems) was 2004.6 ± 86.1 µg/g.
